Reference: PMC11772302
Results are given in words; binding and its absence hold for the method and conditions named. Binding seen in cells or lysates may run through a third protein. Some entries that bind do so weakly or less than the wild type.

The chains behind the UniProt entries cited, without tags or fusion partners. Residues count along the entry.
UniProt Q66HF1, residues 24-727: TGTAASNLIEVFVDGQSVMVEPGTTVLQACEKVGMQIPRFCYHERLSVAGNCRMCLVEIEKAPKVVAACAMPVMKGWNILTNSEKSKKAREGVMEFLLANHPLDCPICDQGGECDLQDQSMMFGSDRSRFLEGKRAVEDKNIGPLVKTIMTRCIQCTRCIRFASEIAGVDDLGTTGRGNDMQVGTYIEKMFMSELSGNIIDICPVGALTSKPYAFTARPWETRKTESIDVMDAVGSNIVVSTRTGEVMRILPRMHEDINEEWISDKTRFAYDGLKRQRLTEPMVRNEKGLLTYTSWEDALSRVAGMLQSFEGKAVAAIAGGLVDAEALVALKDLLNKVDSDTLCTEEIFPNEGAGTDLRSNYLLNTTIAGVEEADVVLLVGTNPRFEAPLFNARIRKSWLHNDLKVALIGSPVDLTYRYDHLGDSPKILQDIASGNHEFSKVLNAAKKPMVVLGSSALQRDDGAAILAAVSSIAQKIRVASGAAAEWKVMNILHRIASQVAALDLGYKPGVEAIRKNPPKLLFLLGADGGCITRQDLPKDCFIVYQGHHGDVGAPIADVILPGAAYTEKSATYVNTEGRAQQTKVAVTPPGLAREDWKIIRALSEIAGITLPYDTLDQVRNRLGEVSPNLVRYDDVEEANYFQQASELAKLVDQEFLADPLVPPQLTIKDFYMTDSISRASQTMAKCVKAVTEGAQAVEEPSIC
UniProt Q5SGE0, residues 78-1392: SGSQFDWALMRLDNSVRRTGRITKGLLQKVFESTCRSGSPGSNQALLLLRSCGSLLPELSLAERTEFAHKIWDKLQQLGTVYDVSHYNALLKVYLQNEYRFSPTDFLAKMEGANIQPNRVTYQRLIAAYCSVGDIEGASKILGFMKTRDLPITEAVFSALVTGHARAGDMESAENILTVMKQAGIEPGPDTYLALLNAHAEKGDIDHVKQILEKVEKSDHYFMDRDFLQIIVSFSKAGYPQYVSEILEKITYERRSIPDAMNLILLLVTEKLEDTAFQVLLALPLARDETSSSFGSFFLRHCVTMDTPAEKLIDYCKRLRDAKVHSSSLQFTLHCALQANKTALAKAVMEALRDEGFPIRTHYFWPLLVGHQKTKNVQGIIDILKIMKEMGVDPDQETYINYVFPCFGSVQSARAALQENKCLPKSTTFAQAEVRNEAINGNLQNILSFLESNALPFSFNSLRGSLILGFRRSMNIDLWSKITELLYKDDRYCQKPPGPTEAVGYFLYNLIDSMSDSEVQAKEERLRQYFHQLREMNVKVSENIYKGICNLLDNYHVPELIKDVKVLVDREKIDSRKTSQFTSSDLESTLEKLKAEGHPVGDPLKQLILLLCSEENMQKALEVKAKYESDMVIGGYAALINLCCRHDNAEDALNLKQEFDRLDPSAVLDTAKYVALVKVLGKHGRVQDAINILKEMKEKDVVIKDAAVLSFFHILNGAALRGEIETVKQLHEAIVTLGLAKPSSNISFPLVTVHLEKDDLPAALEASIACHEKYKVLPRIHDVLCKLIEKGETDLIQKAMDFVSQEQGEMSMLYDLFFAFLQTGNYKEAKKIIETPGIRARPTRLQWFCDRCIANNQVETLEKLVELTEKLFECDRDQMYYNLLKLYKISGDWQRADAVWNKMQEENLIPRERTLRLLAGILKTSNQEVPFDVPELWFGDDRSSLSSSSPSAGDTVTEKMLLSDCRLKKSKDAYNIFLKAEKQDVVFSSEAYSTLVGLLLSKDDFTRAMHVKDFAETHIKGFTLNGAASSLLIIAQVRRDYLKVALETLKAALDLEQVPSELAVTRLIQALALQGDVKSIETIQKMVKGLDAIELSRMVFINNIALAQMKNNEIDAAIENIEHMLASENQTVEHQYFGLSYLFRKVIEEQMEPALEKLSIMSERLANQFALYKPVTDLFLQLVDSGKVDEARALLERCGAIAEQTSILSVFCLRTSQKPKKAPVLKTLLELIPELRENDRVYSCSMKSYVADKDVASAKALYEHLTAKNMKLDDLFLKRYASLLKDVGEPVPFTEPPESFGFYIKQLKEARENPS

B1: NADH dehydrogenase [ubiquinone] 1 alpha subcomplex subunit 11 (protein, UniProt Q80W89 1-141)
chain: MAKRFFEAYNETPDGTQCHRKAYITTALGGLCGLISSAYSITHNPADSPLEAVARVGRFTFTAAAIGAMFGLTTCVSAQVREKPDDPLNYFIGGCAGGLTLGARTHSYGTAAIGCVYMGTAAALFKMGKLEGWELFATPKV

Key:
[1] = target: NADH: ubiquinone oxidoreductase core subunit S1 (rat (endogenous in SD rat cortical neurons and SD rat tissue)) (UniProt Q66HF1); experiment: co-IP; natural total protein of SD rats (sham and MCAO groups, 7 days after the operation) incubated with anti-NDUFS1 antibody overnight at 4°C, then protein A/G agarose at 4°C overnight; Western blot for LRPPRC and NDUFA11, normalised to the IP band of NDUFS1
[2] = target: NADH: ubiquinone oxidoreductase core subunit S1 (rat (endogenous in SD rat cortical neurons and SD rat tissue)) (UniProt Q66HF1); experiment: co-IP; natural total protein of cultured rat cortical neurons (control and OGD/R groups) incubated with anti-NDUFS1 antibody overnight at 4°C, then protein A/G agarose at 4°C overnight; Western blot for LRPPRC and NDUFA11, normalised to the IP band of NDUFS1
[3] = target: NADH: ubiquinone oxidoreductase core subunit S1 (rat (endogenous in SD rat cortical neurons and SD rat tissue)) (UniProt Q66HF1); experiment: co-IP; natural total protein of SD rats (sham and MCAO groups, 7 days after the operation) incubated with anti-NDUFS1 antibody overnight at 4°C, then protein A/G agarose at 4°C overnight; Western blot for LRPPRC and NDUFA11, normalised to the IP band of NDUFS1; remark: listed apart in the source

Row | binding [1] | binding [2] | binding [3] | Molecule
1 | binds | binds |  | Leucine-rich pentatricopeptide repeat-containing (from UniProt Q5SGE0 78-1392)
2 |  | binds | binds | B1
